This is one part of the list. Many values rest on one well or one pass, so single values are uncertain.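 Imaging used 1,536-well plates; nuclei positive for cleaved PARP by antibody were divided by total DNA-stained nuclei to yield the apoptosis fraction. Doses for screening kept most cells viable, and cell lines differ markedly in resting and induced cleaved-PARP levels.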
The compounds below were run on WM3619 (assay: cleaved PARP positive nuclei fraction relative to DMSO control; melanoma cells; higher = more apoptosis). Conditions: library dose: low library concentration; 72 h.

Structure (SMILES) | cleaved PARP positive nuclei fraction
Cc1cn(-c2cc(NC(=O)c3ccc(C)c(Nc4nccc(-c5cccnc5)n4)c3)cc(C(F)(F)F)c2)cn1 [nilotinib] + NC(=O)c1ccc(N(C(N)=O)c2c(F)cccc2F)nc1-c1ccc(F)cc1F [VX702] (first compound 0.2 µM, partner dose 0.4 µM) | 91.1%
CC[C@]1(O)C[C@H]2CN(CCc3c([nH]c4ccccc34)[C@@](C(=O)OC)(c3cc4c(cc3OC)N(C=O)[C@H]3[C@@](O)(C(=O)OC)[C@H](OC(C)=O)[C@]5(CC)C=CCN6CC[C@]43[C@@H]65)C2)C1 [vincristine] + C[C@@H](N)c1ccc(C(=O)Nc2ccnc3[nH]ccc23)cc1 [RKI983] (first compound 0.0001 µM, partner dose 0.4 µM) | 178%
Cc1cn(-c2cc(NC(=O)c3ccc(C)c(Nc4nccc(-c5cccnc5)n4)c3)cc(C(F)(F)F)c2)cn1 [nilotinib] + CC(C)C[C@H](NC(=O)[C@H](Cc1ccccc1)NC(=O)c1cnccn1)B(O)O [Bortezomib] (first compound 0.2 µM, partner dose 0.001 µM) | 112%
O=C(Nc1cc(C(F)(F)F)cc(C(F)(F)F)c1)c1cc(Cl)ccc1O + CC(=O)c1c(C)c2cnc(Nc3ccc(N4CCNCC4)cn3)nc2n(C2CCCC2)c1=O [palbociclib] (first compound 0.016 µM, partner dose 0.04 µM) | 154%
O=C(Nc1cc(C(F)(F)F)cc(C(F)(F)F)c1)c1cc(Cl)ccc1O + OCc1c[nH]c2ccccc12 [Indole-3-carbinol] (first compound 0.016 µM, partner dose 0.8 µM) | 105%

— the supplement of paper PMC4604168 (melanoma cell lines)
